Experiment: peptide synthesis
Settings: coupling step

Substance | step yield
Boc-ACHC-D-Lys(2-Cl—Z)-D-Val-ACHC—OBn | 75% yield
Boc-ACHC-Lys(2-Cl-Z)-Val-ACHC-OBn | 75%
Boc-Ala-ACHC-Ala-ACHC-OBn | 75%
Boc-D-(Lys2-Cl—Z)-D-Val-D-Phe-ACHC—OBn | 60% yield
Boc-D-Ala-ACHC-D-Ala-ACHC—OBn | 75% yield
Boc-D-Lys(2-C1-Z)-ACHC-D-Val-ACHC—OBn | 90% yield
Boc-D-Phe-ACHC-D-Phe-ACHC—OBn | 72% yield
Boc-D-Val-ACHC-D-Val-ACHC-Olin | 80%
Boc-Lys(2-Cl-Z)-ACHC-Val-ACHC-OBn | 90%
Boc-Lys(2-Cl-Z)-Val-Phe-ACHC-OBn | 60%
Boc-Phe-ACHC-Phe-ACHC-OBn | 72%
Boc-Val-ACHC-Val-ACHC-Val-OBn | 80%

Source: US10322998B2 (WISCONSIN ALUMNI RESEARCH FOUNDATION, priority 2002, dated 2019)
